{"source": "paper PMC5389482", "system": "ParF (plasmid TP228 (segregation module))", "experiment": "fluorescence polarization", "conditions": "150 mM potassium glutamate (50-350 mM in salt series), pH 7.5, 5 mM magnesium acetate, 5 mM ATP or ADP, 25 C, 1 nM DNA, recombinant protein, label: 5' fluorescein", "note": "The exact form of at least one protein or probe is not confirmed. No signal at the amounts used counts as a negative. A weaker result is weaker than the reference pair of the same experiment.", "data": [{"sequence": "AATTACTCAATTACTCAATT (double strand) [20-mer]", "values": [{"measurement": "binding result", "setting": "5 mM ADP, 5 mM Mg acetate, 150 mM K glutamate", "value": "no binding"}, {"measurement": "binding result", "setting": "5 mM ATP, 50 to <150 mM K glutamate, Kd in nanomolar range up to 150 mM", "value": "binds"}, {"measurement": "binding result", "setting": "5 mM ATP, >150 to 350 mM K glutamate, higher ionic strength inhibited binding", "value": "binds more weakly"}]}, {"sequence": "CAAGAAATAAACC (double strand) [13-mer]", "values": [{"measurement": "binding result", "setting": "5 mM ATP, 5 mM Mg acetate, 150 mM K glutamate, loosely associated", "value": "binds more weakly"}]}, {"sequence": "CAAGAAATAAACCAAAAATCGTAATCGAAAGATAAAAATCTG (double strand) [42-mer]", "values": [{"measurement": "binding result", "setting": "5 mM ATP, 5 mM Mg acetate, 150 mM K glutamate, avid binding", "value": "binds"}]}]}
